Test results: PMC13068435

Sequences of proteins named here, by UniProt entry; tags and fusion partners are left off. A change or cut given only in a name is not applied to a line headed by its entry.
UniProt Q9ULT6: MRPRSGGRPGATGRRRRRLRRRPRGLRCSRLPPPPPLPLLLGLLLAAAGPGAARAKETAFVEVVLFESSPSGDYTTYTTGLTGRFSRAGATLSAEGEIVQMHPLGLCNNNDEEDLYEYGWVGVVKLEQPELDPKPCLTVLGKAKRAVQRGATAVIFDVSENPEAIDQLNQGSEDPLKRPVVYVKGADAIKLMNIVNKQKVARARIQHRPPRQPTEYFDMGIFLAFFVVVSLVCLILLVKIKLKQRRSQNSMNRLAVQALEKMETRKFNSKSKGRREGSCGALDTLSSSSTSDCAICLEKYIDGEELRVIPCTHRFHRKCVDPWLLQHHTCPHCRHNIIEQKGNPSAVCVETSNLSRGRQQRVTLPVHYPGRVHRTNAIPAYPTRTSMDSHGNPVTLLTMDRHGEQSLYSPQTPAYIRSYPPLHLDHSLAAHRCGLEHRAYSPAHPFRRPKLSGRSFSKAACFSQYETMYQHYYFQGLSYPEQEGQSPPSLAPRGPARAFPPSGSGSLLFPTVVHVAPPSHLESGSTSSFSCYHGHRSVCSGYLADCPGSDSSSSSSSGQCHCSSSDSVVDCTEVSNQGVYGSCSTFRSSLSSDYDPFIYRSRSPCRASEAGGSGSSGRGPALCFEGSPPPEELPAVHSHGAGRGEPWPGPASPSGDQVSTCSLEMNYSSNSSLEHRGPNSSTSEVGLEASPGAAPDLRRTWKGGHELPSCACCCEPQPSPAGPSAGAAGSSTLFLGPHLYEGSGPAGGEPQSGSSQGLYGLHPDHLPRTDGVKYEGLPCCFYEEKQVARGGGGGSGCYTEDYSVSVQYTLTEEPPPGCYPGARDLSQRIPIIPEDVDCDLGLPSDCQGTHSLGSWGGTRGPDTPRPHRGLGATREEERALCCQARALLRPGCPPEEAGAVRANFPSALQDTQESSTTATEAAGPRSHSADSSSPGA

Assays:
[1] = biological target: EGFR, transfected in 293T cells (UniProt P00533); test: co-IP; 293T cells co-transfected with EGFR and ZNRF3/RNF43 WT or ΔPA constructs; the precipitating antibody is not told
[2] = biological target: EGFR, transfected in HCT116 cells (UniProt P00533); test: proximity ligation; HCT116 cells co-transfected with Myc-ZNRF3ΔRING and EGFR; Duolink In Situ Red kit; anti-EGFR rabbit and anti-Myc-tag mouse primary antibodies; no primary antibody as negative control

| binding [1] | binding [2] | Substance |
| --- | --- | --- |
| binds |  | Myc-ZNRF3 ΔPA (from UniProt Q9ULT6) (enzyme) |
|  | binds | Myc-ZNRF3ΔRING (from UniProt Q9ULT6) (enzyme) |

No constants are given. Whether binding was seen depends on the method and setting. Binding seen in cells or lysates may run through a third protein. Binding can be weak; no strength is given.
